A short description of the data set: Tape durability test (friction coefficient, still durability, shuttle durability). The conditions noted are these: for Still durability after heating/min / Friction coefficient after 100 runs after heating / Shuttle durability after heating/times: after heating test 10 minutes at 100° C.
Setting [1] is: −5° C., decay time of output by −3 dB in paused state.
[2] abbreviates: −5° C., shuttles until output reduced by 3 dB.

Take `CCCCCCCCCCCCCCCCCC[N+](C)(C)CCCO.O=S(=O)([N-]S(=O)(=O)C(F)(F)C(F)(F)C(F)(F)C(F)(F)F)C(F)(F)C(F)(F)C(F)(F)C(F)(F)F` [Example 10A, bis(nonafluorobutanesulfonyl)imide-N-3′hydroxypropyl-N,N-dimethyloctadecylammonium]: where the note is “40° C., 30% RH”, the Still durability/min is greater than 60 min and the “Still durability after heating/min” value is given as greater than 60 min. Moreover, under “40° C., 90% RH”, the “Friction coefficient after 100 runs” value turned out to be 0.21, the Shuttle durability/times is reported as greater than 200 times, the “Friction coefficient after 100 runs after heating” value amounted to 0.21 and the “Shuttle durability after heating/times” value is greater than 200 times. Further, for the setting “−5° C.”, the “Friction coefficient after 100 runs” value was 0.19, the “Friction coefficient after 100 runs after heating” value turned out to be 0.20, the “Shuttle durability after heating/times” value was greater than 200 times and the “Still durability after heating/min” value is greater than 60 min. The Still durability/min under setting [1] was greater than 60 min. Under setting [2], this molecule had a Shuttle durability/times greater than 200 times.
`CCCCCCCCCCCCCCCCCC[n+]1ccn(CCCO)c1CCCCCCCCCCCCCCCCC.O=S(=O)([N-]S(=O)(=O)C(F)(F)C(F)(F)C(F)(F)C(F)(F)F)C(F)(F)C(F)(F)C(F)(F)C(F)(F)F` [Example 8A, bis(nonafluorobutanesulfonyl)imide-1-3′hydroxypropyl-2-heptadecyl-3-octadecylimidazolium]: under “40° C., 30% RH”, the Still durability/min was greater than 60 min and the “Still durability after heating/min” value was greater than 60 min. In addition, where the note is “40° C., 90% RH”, the “Friction coefficient after 100 runs” value was determined as 0.22, the Shuttle durability/times is greater than 200 times, the “Friction coefficient after 100 runs after heating” value worked out at 0.23 and the “Shuttle durability after heating/times” value was greater than 200 times. For the same molecule, for the setting “−5° C.”, the “Friction coefficient after 100 runs” value was determined as 0.21, the “Friction coefficient after 100 runs after heating” value came out at 0.21, the “Shuttle durability after heating/times” value is reported as greater than 200 times and the “Still durability after heating/min” value was greater than 60 min. The molecule further displayed a Still durability/min under setting [1] greater than 60 min. Under setting [2], the Shuttle durability/times was greater than 200 times.
For “bis(nonafluorobutanesulfonyl)imide-1-dodecyl-2-undecyl-3-3′hydroxypropyloctadecylimidazolium [Example 7A]”, where the note is “40° C., 30% RH”, the Still durability/min is given as greater than 60 min and the “Still durability after heating/min” value is greater than 60 min. Moreover, where the note is “40° C., 90% RH”, the “Friction coefficient after 100 runs” value was 0.25, the Shuttle durability/times is reported as greater than 200 times, the “Friction coefficient after 100 runs after heating” value was found to be 0.26 and the “Shuttle durability after heating/times” value is reported as greater than 200 times. In addition, under “−5° C.”, the “Friction coefficient after 100 runs” value is 0.24, the “Friction coefficient after 100 runs after heating” value amounted to 0.24, the “Shuttle durability after heating/times” value was greater than 200 times and the “Still durability after heating/min” value is listed as greater than 60 min. Under setting [1], the Still durability/min was greater than 60 min. The molecule also yielded a Shuttle durability/times under setting [2] greater than 200 times.
Take `CCCCCCCCCCCCCCCCCCN.O=S(=O)(NS(=O)(=O)C(F)(F)C(F)(F)C(F)(F)C(F)(F)F)C(F)(F)C(F)(F)C(F)(F)C(F)(F)F` [Comparative Example 8A, bis(nonafluorobutanesulfonyl)imide-octadecylammonium]: under “40° C., 30% RH”, the Still durability/min is given as greater than 60 min and the “Still durability after heating/min” value was greater than 60 min. Further, for the setting “40° C., 90% RH”, the “Friction coefficient after 100 runs” value is on record as 0.20, the Shuttle durability/times was greater than 200 times, the “Friction coefficient after 100 runs after heating” value worked out at 0.20 and the “Shuttle durability after heating/times” value was greater than 200 times. Also, under “−5° C.”, the “Friction coefficient after 100 runs” value came out at 0.19, the “Friction coefficient after 100 runs after heating” value is listed as 0.20, the “Shuttle durability after heating/times” value is reported as greater than 200 times and the “Still durability after heating/min” value is given as greater than 60 min. The molecule further came in with a Still durability/min under setting [1] greater than 60 min. The molecule also showed a Shuttle durability/times under setting [2] greater than 200 times.
With `CCCCCCCCCCCCCCCCCC[n+]1ccn(CCCC)c1.O=S1(=O)[N-]S(=O)(=O)C(F)(F)C(F)(F)C1(F)F` [Comparative Example 2A, hexafluorocyclopropane-1,3-bis(sulfonyl)imide-1-butyl-3-n-octadecylimidazolium], for the setting “40° C., 30% RH”, the Still durability/min is reported as greater than 60 min and the “Still durability after heating/min” value is on record as greater than 60 min. Besides, for the setting “40° C., 90% RH”, the “Friction coefficient after 100 runs” value was 0.25, the Shuttle durability/times was greater than 200 times, the “Friction coefficient after 100 runs after heating” value is on record as 0.27 and the “Shuttle durability after heating/times” value is given as greater than 200 times. Further, where the note is “−5° C.”, the “Friction coefficient after 100 runs” value amounted to 0.23, the “Friction coefficient after 100 runs after heating” value worked out at 0.25, the “Shuttle durability after heating/times” value is recorded as greater than 200 times and the “Still durability after heating/min” value is reported as greater than 60 min. Under setting [1], this molecule showed a Still durability/min greater than 60 min. The molecule further returned a Shuttle durability/times under setting [2] greater than 200 times.
Turning to `CCCCCCCCCCCCCCCCCC[n+]1ccn(CCCO)c1.O=S(=O)([N-]S(=O)(=O)C(F)(F)C(F)(F)C(F)(F)C(F)(F)F)C(F)(F)C(F)(F)C(F)(F)C(F)(F)F` [Example 2A, bis(nonafluorobutanesulfonyl)imide1-3′hydroxypropyl-3-octadecylimidazolium], under “40° C., 30% RH”, the Still durability/min is greater than 60 min and the “Still durability after heating/min” value is recorded as greater than 60 min. For the same molecule, for the setting “40° C., 90% RH”, the “Friction coefficient after 100 runs” value was 0.25, the Shuttle durability/times is recorded as greater than 200 times, the “Friction coefficient after 100 runs after heating” value is on record as 0.26 and the “Shuttle durability after heating/times” value is greater than 200 times. Moreover, where the note is “−5° C.”, the “Friction coefficient after 100 runs” value was found to be 0.22, the “Friction coefficient after 100 runs after heating” value is 0.23, the “Shuttle durability after heating/times” value is listed as greater than 200 times and the “Still durability after heating/min” value is greater than 60 min. The Still durability/min under setting [1] is given as greater than 60 min. This molecule yielded a Shuttle durability/times under setting [2] greater than 200 times.
For the molecule `CCCCCCCCCCCCCCCCCCn1ccnc1CCCCCCCCCCCCCCCCC.O=S1(=O)NS(=O)(=O)C(F)(F)C(F)(F)C1(F)F` [Comparative Example 7A, hexafluorocyclopropane-1,3-bis(sulfonyl)imide-1-octadecyl-2-heptadecylimidazolium], where the note is “40° C., 30% RH”, the Still durability/min is recorded as greater than 60 min and the “Still durability after heating/min” value is listed as greater than 60 min. In addition, where the note is “40° C., 90% RH”, the “Friction coefficient after 100 runs” value is recorded as 0.22, the Shuttle durability/times is on record as greater than 200 times, the “Friction coefficient after 100 runs after heating” value amounted to 0.23 and the “Shuttle durability after heating/times” value was greater than 200 times. Besides, for the setting “−5° C.”, the “Friction coefficient after 100 runs” value was found to be 0.20, the “Friction coefficient after 100 runs after heating” value turned out to be 0.22, the “Shuttle durability after heating/times” value is greater than 200 times and the “Still durability after heating/min” value was greater than 60 min. The same molecule yielded a Still durability/min under setting [1] greater than 60 min. Under setting [2], this molecule had a Shuttle durability/times greater than 200 times.
As to “nonafluorobutanesulfonic acid-N,N,N-trimethyloctadecylammonium [Comparative Example 9A]”, under “40° C., 30% RH”, the Still durability/min was greater than 60 min and the “Still durability after heating/min” value was greater than 60 min. Besides, for the setting “40° C., 90% RH”, the “Friction coefficient after 100 runs” value is 0.19, the Shuttle durability/times is recorded as greater than 200 times, the “Friction coefficient after 100 runs after heating” value came to 0.19 and the “Shuttle durability after heating/times” value is listed as greater than 200 times. Moreover, under “−5° C.”, the “Friction coefficient after 100 runs” value came to 0.18, the “Friction coefficient after 100 runs after heating” value amounted to 0.19, the “Shuttle durability after heating/times” value was greater than 200 times and the “Still durability after heating/min” value is greater than 60 min. Besides, under setting [1], the Still durability/min is recorded as greater than 60 min. Under setting [2], this molecule displayed a Shuttle durability/times greater than 200 times.
As for “nonafluorobutanesulfonic acid-1-octadecylimidazolium [Comparative Example 1A]”, for the setting “40° C., 30% RH”, the Still durability/min is greater than 60 min and the “Still durability after heating/min” value is listed as greater than 60 min. Where the note is “40° C., 90% RH”, the “Friction coefficient after 100 runs” value was 0.22, the Shuttle durability/times was greater than 200 times, the “Friction coefficient after 100 runs after heating” value was found to be 0.23 and the “Shuttle durability after heating/times” value was greater than 200 times. Moreover, where the note is “−5° C.”, the “Friction coefficient after 100 runs” value stood at 0.20, the “Friction coefficient after 100 runs after heating” value was determined as 0.20, the “Shuttle durability after heating/times” value is greater than 200 times and the “Still durability after heating/min” value was greater than 60 min. Moreover, the Still durability/min under setting [1] is greater than 60 min. Under setting [2], this molecule came in with a Shuttle durability/times greater than 200 times.

Source of the values: patent publication US20190051326A1, “Ionic Liquid, Lubricant, and Magnetic Recording Medium” (priority 2016, published 2019).
